The values that follow come from PubChem BioAssay AID1508600 (Functional Genomics Laboratory (NCATS/FGL), 2020).

Hit rate of the full screen: of about 53,000 sequences, about 3,700 (7%) were called active.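 The calls were made as follows: active = gene knockdowns whose robust z-score for IL-1 alpha signal is at least 2 or at most -2, so actives lie on both sides; inactive = the rest.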 The list shows a part of the results.

The experiment in a line: Components of the Cytosolic LPS Sensing Pathway: Gene Identification via Genome-wide siRNA Screen.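 Also: robust z of the log signal after scaling to non-targeting control siRNA wells of the plate.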 Particulars: RAW264.7 macrophages, IL-1a HTRF, actives lie on both sides, screened at 100 nM (by protocol), cells primed 5 h with Pam3CSK4 first. The essentials: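 Knockdown: 100 nM siRNA, 48h, RAW264.7. Stimulation: Pam3CSK4 5 h, then LipidA via TransIT-TKO 24 h. Output: supernatant IL-1a HTRF, negative-control-normalized, log robust z-score; viability by CellTiter-Glo.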
(In general: TR-FRET usually uses a lanthanide donor and a delayed reading to cut background.)
With CCACCUUCCAUGGUCAGUATT against Xpo4, the z-score was inactive: -0.741.

GGUGUUCGUUUCAUCUACATT against Hnrnph2: the z-score is inactive: 0.299.

As to “GGCAGCACCAUCGUCUAAUTT against 4930432E11Rik”, the z-score was inactive: 0.622.

On to GGACCAUGAGACGAUGGGATT against Dysf, for which the z-score is inactive: 0.167.

For GCCAAUGUGGAAUCAAAGGTT against Ms4a6c, the z-score was inactive: 1.83.

For the sequence CCAGUGCAGGACCUCAUUUTT against Sod1, the z-score is active: -2.06.

For the sequence GGGAAAGGAAACAUGGAACTT against Apom, the z-score was inactive: 1.26.

As for GGUUGAAUCCUAAGAAUGUTT against Edc3, the z-score was inactive: 0.39.

Consider GGGCCUUACUCAAAUCCCUTT against Fbln5, for which the z-score is inactive: -1.54.

For CGUGUAGCAAUGAGAUAUUTT against Trpc5, the z-score was inactive: 0.162.

Turning to GCCAAGACAUCAGAAGGAUTT against Nrxn1, the z-score was inactive: 0.202.

Turning to UCUAGAAUGAGGGUCUUUUTT against Il19, the z-score is inactive: -0.0966.

On to GCUAUGAAAAGUGUCUGCCTT against Cul4b, for which the z-score was inactive: 0.934.

With GCAGCUAAUUAAGUCAAGGTT against Barhl1, the z-score was inactive: -1.32.

Take GCAACAAAUCAGAUUUGACTT against Dhdh: the z-score is inactive: 0.246.

GGUGAAAUUGCUCAGAUAATT against Narf: the z-score was inactive: 0.387.

On to GGUAUUUGGAAUCCAAUUGTT against Maged2, for which the z-score is inactive: 0.65.

On to GGAUAAAGAAGGUAUUCUUTT against Mccc1, for which the z-score is inactive: -0.891.

“CCUAUCAUGGCAGAAUACUTT against 1300017J02Rik”: the z-score is inactive: -0.307.

For the sequence GGAAACAACAACUGUCACATT against Defb40, the z-score is active: -2.13.

As to GCUUUUCGAACAAGAGAAGTT against Ankle2, the z-score is inactive: 0.0248.

Take GCUAAUGACACCACUUUUGTT against Aldh9a1: the z-score is inactive: -0.379.

Regarding GGGAGUUGACUAGAAGUAATT against Bag1, the z-score was inactive: -0.493.

In the case of GGCAUGUCUUCACAGGUGATT against Snrk, the z-score is inactive: 1.29.

GGCAGAGCCUGGACAAAUATT against Slc6a4: the z-score was inactive: 0.768.

As to GCAAUUGAGUCCAUAUAGCTT against Jtb, the z-score is inactive: 0.0967.

On to GGUAAAACCGACAUUGACCTT against Adgrl1, for which the z-score was inactive: 0.51.

In the case of GGCCUUAAAAUACCUUUGATT against Srpx, the z-score was inactive: 1.12.

In the case of GCAUAUUGAGGAAUUCCUATT against Sh3rf3, the z-score was inactive: 0.231.

As for GCUAAAUUCAGCUGAGGCUTT against Kdm4d, the z-score was inactive: -0.217.

Take GGUGGUGGCUGUGUAUAACTT against Cdh15: the z-score is inactive: -0.14.

Regarding GGACCAGUUAGUGAAGUGCTT against Rbm43, the z-score is inactive: -1.2.

As to GGAGCUCGUGAAGCUGUUUTT against Stk19, the z-score is inactive: -1.61.

CCUUGCAUUACUUCUAAAUTT against Aff2: the z-score was inactive: 0.29.

GGGUCCACAUAUAAUUACCTT against Slc36a3: the z-score is inactive: 1.26.

Take GGACAUCUUGCUGCUUCUATT against Srebf1: the z-score was inactive: 0.0201.

In the case of GGCCAGAGCCUGAAUUCUUTT against Bag4, the z-score was inactive: 0.336.

With GCCCAUGAGUCAACAGUACTT against Ss18l1, the z-score is inactive: -1.27.

With GGGAAGUACACAUUGAUUATT against Ndst4, the z-score is inactive: 0.298.

In the case of GGUUCACGAAGAACAUAAATT against Armcx6, the z-score is inactive: -1.02.

Take GGAAUCAGCUAAUGAUUUCTT against Tyw1: the z-score is inactive: 0.819.

For the sequence GAUAAAAUGGGCAUUACCUTT against Olfr666, the z-score is inactive: -0.721.

Turning to GGCAGCAGAAGCUUAACAATT against Cadps2, the z-score is inactive: 0.727.

On to GGGUUUCAUACCCACUGCUTT against Cntnap1, for which the z-score is inactive: -0.00358.

As for GGUCCAAAAAUGCAAAGAATT against Agbl2, the z-score was inactive: 1.83.

Turning to GGUGUUUCGCUUGGAGGUGTT against Star, the z-score was inactive: -0.381.

For CCGAUACCGGGUAUUUACCTT against Cd3eap, the z-score was inactive: 0.439.

As for GGAAACCACUAUCCACCUUTT against Ubd, the z-score was inactive: -0.357.

On to CCUACUUUAUUAUGUGUCATT against Mmp10, for which the z-score was inactive: 0.0258.

On to GGAACUUGCCAGAGAUACATT against Gak, for which the z-score was inactive: 1.64.

For GCCUUUAGCAAAGUGGUUCTT against Rragd, the z-score was inactive: 0.259.

Turning to GGACCAAGAACCAGCAAUGTT against Defb6, the z-score was inactive: -0.69.

For the sequence CCAGAUAUGAAGCUGCUCCTT against Rab28, the z-score is inactive: -0.142.

For the sequence GGAGGAGCUGGAGAAAACATT against Psd4, the z-score is inactive: -0.43.

Regarding GGUGAUUGUCUGGGAUUCCTT against Gnb5, the z-score is inactive: -0.609.

For “GCUACUGGGAAUCUUUCAATT against 5730596B20Rik”, the z-score is inactive: 0.562.

For the sequence GGAAGGUUUAUUCUUGGAUTT against Shcbp1, the z-score is inactive: -1.06.

Regarding GCUUCUACGCGGCUACUUUTT against Elmod3, the z-score was inactive: -0.0255.

For the sequence GGUAAUAUAUGACUCCAGCTT against Prelid3b, the z-score is inactive: 0.381.

Regarding GCCAACUGGAUAAAUGUCATT against Spdl1, the z-score was inactive: -1.38.

Turning to GGACAGAUUGUGGAAACCUTT against Ctnnd1, the z-score was inactive: -0.978.

As to GGACAAGUCCUUUGCUGUGTT against Zmynd8, the z-score is inactive: -1.35.

For the sequence GGAGCCAAGAACUUUUCAGTT against Gorab, the z-score is inactive: -0.216.

On to GGUCUGAGCUGUGAUUACATT against Alkbh2, for which the z-score is inactive: -0.183.

For “GGUUAAAGACAUGUACUAGTT against 9930022D16Rik”, the z-score is inactive: 1.19.

For the sequence GGUUACGUGUUUGUAUCUATT against Higd1a, the z-score was inactive: -0.395.

With CCGCCAUGUUCAUUGAAGATT against Spns1, the z-score is inactive: -1.84.

On to CGGUUUGCACAAGAAAUGGTT against Svs6, for which the z-score is inactive: 0.0401.

Consider GCGGAGCAGAAUCUUCAUGTT against Olfr613, for which the z-score was inactive: 1.57.

On to CCUUUAUUCUCUGUAUUUGTT against Obox1, for which the z-score was inactive: -0.658.

In the case of GGCUACUCAGCAGAUUGUCTT against Dclre1b, the z-score was inactive: 0.000573.

With GAGAGCCAUGCAAACUAAGTT against Il19, the z-score is inactive: 0.422.

For the sequence GCAAAUACCGAACUCCCAGTT against Aqp12, the z-score is inactive: -0.262.

For the sequence CGAUGUGCAUUUUAAGUAGTT against Cdk2ap1, the z-score is inactive: 0.825.

In the case of GGGAGGUGCAAUCAGCUUUTT against Olfr1336, the z-score was inactive: 0.395.

GGCUACACCUUACUAGUGGTT against Prr36: the z-score was inactive: -0.223.

As to GGCAAAAUUAAAGCACAGUTT against L3hypdh, the z-score was inactive: 0.922.

Take CCAUCAUAUGAUCACGAAGTT against Cd83: the z-score is inactive: -0.0915.

As for CCAUAUCUCUAAAUGUCAATT against Opa1, the z-score was inactive: 0.106.

Take GGAUGGAGAAAAUGUUAUGTT against Strbp: the z-score is inactive: -0.00962.

With GGAGAUUCCAGAGUUCUUGTT against Krba1, the z-score was inactive: 0.426.

Take CCGUUUUGAACCAUAAAAATT against Zfp7: the z-score was inactive: -0.873.

As for CCUUCGUAGUCUUGAUGUGTT against Olfr1179, the z-score is inactive: -0.104.

GGUGAUUGCCCGUUGAUUGTT against Dus4l: the z-score was inactive: -1.22.

As for GCAGUUACGUUAGUUAAUATT against Plekha1, the z-score is inactive: 1.1.

For the sequence GGAGAAACUUUCAAAAGACTT against Trim36, the z-score is inactive: -0.147.

Turning to GGAGGCUCAACUGUGUUAATT against Tnfrsf4, the z-score was inactive: -1.01.

Take GGAAUAGCAUCACCAGUUGTT against Foxn3: the z-score is inactive: -1.2.

Turning to GGACACAAUAUGUGAAGUATT against Tasor2, the z-score is inactive: 0.823.

In the case of GGUGGUUACACAAGGAACATT against Phgdh, the z-score was inactive: -0.314.

In the case of GGACAGCAGUUUUUACUAGTT against Mllt10, the z-score is inactive: 0.907.

As to CGCAGUGAGGAGUAUGAAGTT against Nin, the z-score is active: 3.53.

On to CCAAGAGCUAUGUUGGUUUTT against Txlna, for which the z-score is inactive: -0.0704.

For the sequence GGAUAAACAUCAUGAAGCUTT against Scgb1a1, the z-score was inactive: 0.00401.

Consider CCAGGAUUACUAUCACAAATT against Ep400, for which the z-score was inactive: -1.17.

For GGAACUGGUGUCAUCUACATT against Plin3, the z-score is inactive: -0.661.

For the sequence GGGAGUCCCAGCUUAGUAATT against Pou2f2, the z-score was inactive: -1.33.

On to GGUUGAUCUAAUGAUUGUGTT against Ccdc34, for which the z-score was active: 2.5.

As to GGGAAAAGAAAGUACCUACTT against Zcchc10, the z-score is active: 2.26.

GGGCUUCUUCUGCUAUGACTT against Plppr2: the z-score was active: -2.2.

On to GGAUGUAUGUUAAGAUUGATT against Olfr906, for which the z-score was inactive: -1.2.

For GCUUUAAUUGUGAAAGCACTT against Miga1, the z-score was active: -2.26.

For the sequence CCAAUGCUGAGGAGUCUUCTT against Dcun1d3, the z-score was inactive: 0.00661.

As for GCACCAAGAAUUAUAUACATT against Usp8, the z-score was inactive: 1.84.

Take GCAGAUAGCCCACGUCAUUTT against Nfkb2: the z-score was inactive: 0.881.

As to GCAUAUACUUGAUUACCGUTT against Olfr830, the z-score is inactive: -0.391.

For GCUCAUGCAGAAAUGUUUUTT against Kri1, the z-score is inactive: -0.371.
